Among the data in publication PMC5264588, “ER residency of the ceramide phosphoethanolamine synthase SMSr relies on homotypic oligomerization mediated by its SAM domain” (Scientific Reports, 2017) are binding values, retold here.

These are yes or no findings as the source states them, for the method shown. Binding seen in cells or lysates may run through a third protein. Some results given as binding are weak or reduced against the parent protein; the word gives no strength. Tags and fused reporters may be left off the sequences shown.

The target in one assay is T1, V5/His6-tagged SMSr (human, UniProt Q96LT4 1-415).
T1 construct: SMSr (SAMD8), ceramide phosphoethanolamine synthase, human, UniProt Q96LT4; the cDNA was PCR amplified and cloned with a C-terminal V5/His6 tag; also called SMSr-V5; SAMD8; source: HeLa, transfected (pcDNA3.1/V5-His TOPO), in detergent extract; not shown: V5, C-terminal, kept; His6, C-terminal, kept
T1 sequence (looked up): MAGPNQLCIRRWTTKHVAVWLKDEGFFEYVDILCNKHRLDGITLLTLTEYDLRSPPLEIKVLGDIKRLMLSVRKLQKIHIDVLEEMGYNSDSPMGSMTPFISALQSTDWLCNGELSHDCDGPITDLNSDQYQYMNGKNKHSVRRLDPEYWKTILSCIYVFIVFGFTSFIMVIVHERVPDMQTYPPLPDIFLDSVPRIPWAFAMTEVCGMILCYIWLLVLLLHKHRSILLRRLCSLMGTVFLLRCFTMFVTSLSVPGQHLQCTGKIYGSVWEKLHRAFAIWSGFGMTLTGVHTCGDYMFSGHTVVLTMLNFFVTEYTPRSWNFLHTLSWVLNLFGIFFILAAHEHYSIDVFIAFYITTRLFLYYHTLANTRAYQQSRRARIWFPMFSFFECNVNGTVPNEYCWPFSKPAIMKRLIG
Description: co-IP; HeLa (wild-type or SMSr-/-) cells co-transfected with V5/His6- and HA-tagged constructs, solubilized with detergent with 10 mM NEM; anti-V5 immunoprecipitation, immunoblot with anti-V5 and anti-HA. (Immunoblotting shows a protein as a band on a membrane.)

For assay [1], the target named is T2, V5/His6-tagged SMSrΔSAM (human) (UniProt Q96LT4).
T2 sequence: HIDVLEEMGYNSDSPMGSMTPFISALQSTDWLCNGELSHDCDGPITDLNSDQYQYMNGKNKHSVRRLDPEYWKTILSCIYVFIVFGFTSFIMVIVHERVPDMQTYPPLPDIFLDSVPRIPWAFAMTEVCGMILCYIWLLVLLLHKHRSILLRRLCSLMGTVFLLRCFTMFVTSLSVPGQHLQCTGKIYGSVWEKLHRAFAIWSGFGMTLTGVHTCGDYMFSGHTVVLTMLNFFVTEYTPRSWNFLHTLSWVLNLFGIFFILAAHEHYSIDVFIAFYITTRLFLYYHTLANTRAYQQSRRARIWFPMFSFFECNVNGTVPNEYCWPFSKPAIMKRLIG
As to the kind of experiment: co-IP; detergent extracts of HeLa cells co-transfected with HA-tagged and V5/His6-tagged constructs; anti-V5 immunoprecipitation, immunoblot with anti-V5 and anti-HA; non-reducing SDS-PAGE; no NEM named.

Assay [2] deals with T3, V5/His6-tagged SMSrΔSAM-KKSA (human) (UniProt Q96LT4).
T3 sequence: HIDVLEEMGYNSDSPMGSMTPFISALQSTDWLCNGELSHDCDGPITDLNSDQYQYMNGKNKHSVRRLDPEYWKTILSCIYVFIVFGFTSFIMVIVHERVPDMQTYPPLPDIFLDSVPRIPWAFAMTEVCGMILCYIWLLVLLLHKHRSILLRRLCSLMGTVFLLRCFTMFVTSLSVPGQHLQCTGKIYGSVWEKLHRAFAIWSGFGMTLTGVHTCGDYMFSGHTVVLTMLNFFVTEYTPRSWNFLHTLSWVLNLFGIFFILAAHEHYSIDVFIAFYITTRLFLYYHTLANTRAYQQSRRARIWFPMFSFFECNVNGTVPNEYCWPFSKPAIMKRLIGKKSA
The description is as above.

The target of assay [3] is T4, V5/His6-tagged SMS1 (human) (UniProt Q86VZ5).
T4 sequence: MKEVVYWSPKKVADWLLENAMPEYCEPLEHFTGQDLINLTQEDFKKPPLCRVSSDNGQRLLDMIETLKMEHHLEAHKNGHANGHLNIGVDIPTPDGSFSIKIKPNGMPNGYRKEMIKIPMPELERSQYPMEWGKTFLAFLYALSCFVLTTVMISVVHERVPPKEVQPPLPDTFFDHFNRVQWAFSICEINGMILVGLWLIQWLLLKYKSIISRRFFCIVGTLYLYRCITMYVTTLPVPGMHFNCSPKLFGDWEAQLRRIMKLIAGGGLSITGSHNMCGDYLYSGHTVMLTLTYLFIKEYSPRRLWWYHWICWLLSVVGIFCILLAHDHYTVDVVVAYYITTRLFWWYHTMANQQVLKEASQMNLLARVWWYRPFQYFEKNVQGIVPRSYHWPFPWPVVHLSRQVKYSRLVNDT
The assay is described as above.

Assay [4] deals with T5, V5/His6-tagged SMS1ΔSAM (human) (UniProt Q86VZ5).
T5 sequence: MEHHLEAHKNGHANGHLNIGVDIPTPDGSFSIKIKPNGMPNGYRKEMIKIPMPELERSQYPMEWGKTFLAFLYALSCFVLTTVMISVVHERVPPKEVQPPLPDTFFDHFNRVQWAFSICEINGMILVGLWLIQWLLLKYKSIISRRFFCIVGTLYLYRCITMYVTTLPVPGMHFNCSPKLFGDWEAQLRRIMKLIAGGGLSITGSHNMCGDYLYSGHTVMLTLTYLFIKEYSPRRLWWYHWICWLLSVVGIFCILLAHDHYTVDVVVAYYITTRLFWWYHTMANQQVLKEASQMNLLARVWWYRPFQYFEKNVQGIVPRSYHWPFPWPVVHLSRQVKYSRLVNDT
The assay is described as above.

B1: HA-tagged SMSr (enzyme, human, UniProt Q96LT4 1-415, looked up)
chain: MAGPNQLCIRRWTTKHVAVWLKDEGFFEYVDILCNKHRLDGITLLTLTEYDLRSPPLEIKVLGDIKRLMLSVRKLQKIHIDVLEEMGYNSDSPMGSMTPFISALQSTDWLCNGELSHDCDGPITDLNSDQYQYMNGKNKHSVRRLDPEYWKTILSCIYVFIVFGFTSFIMVIVHERVPDMQTYPPLPDIFLDSVPRIPWAFAMTEVCGMILCYIWLLVLLLHKHRSILLRRLCSLMGTVFLLRCFTMFVTSLSVPGQHLQCTGKIYGSVWEKLHRAFAIWSGFGMTLTGVHTCGDYMFSGHTVVLTMLNFFVTEYTPRSWNFLHTLSWVLNLFGIFFILAAHEHYSIDVFIAFYITTRLFLYYHTLANTRAYQQSRRARIWFPMFSFFECNVNGTVPNEYCWPFSKPAIMKRLIG
notes: SMSr (SAMD8), ceramide phosphoethanolamine synthase, human, UniProt Q96LT4; also called SMSr-HA; full-length SMSr-HA; source: HeLa (wild-type or SMSr-/-), transfected, in detergent extract; not shown: HA, C-terminal, kept
With B1, the binding entry is “binds” with V5/His6-tagged SMSr, “no binding” in assay [1] and “no binding” in assay [2].

B2: HA-tagged SMS1 (enzyme, UniProt Q86VZ5 1-413)
chain: MKEVVYWSPKKVADWLLENAMPEYCEPLEHFTGQDLINLTQEDFKKPPLCRVSSDNGQRLLDMIETLKMEHHLEAHKNGHANGHLNIGVDIPTPDGSFSIKIKPNGMPNGYRKEMIKIPMPELERSQYPMEWGKTFLAFLYALSCFVLTTVMISVVHERVPPKEVQPPLPDTFFDHFNRVQWAFSICEINGMILVGLWLIQWLLLKYKSIISRRFFCIVGTLYLYRCITMYVTTLPVPGMHFNCSPKLFGDWEAQLRRIMKLIAGGGLSITGSHNMCGDYLYSGHTVMLTLTYLFIKEYSPRRLWWYHWICWLLSVVGIFCILLAHDHYTVDVVVAYYITTRLFWWYHTMANQQVLKEASQMNLLARVWWYRPFQYFEKNVQGIVPRSYHWPFPWPVVHLSRQVKYSRLVNDT
Turning to B2, the binding result in assay [3] and in assay [4] was “binds” in each case.
